# Measurements published in the supplement of paper PMC12819154, “High-throughput peptide-centric local stability assay extends protein–ligand identification to membrane proteins, tissues and bacteria” (Nature Structural & Molecular Biology, 2025).
# This is one part of the list. Small differences around the control level are noise.
# Biological target: T1, UniProt P76038
# T1 sequence (whole entry): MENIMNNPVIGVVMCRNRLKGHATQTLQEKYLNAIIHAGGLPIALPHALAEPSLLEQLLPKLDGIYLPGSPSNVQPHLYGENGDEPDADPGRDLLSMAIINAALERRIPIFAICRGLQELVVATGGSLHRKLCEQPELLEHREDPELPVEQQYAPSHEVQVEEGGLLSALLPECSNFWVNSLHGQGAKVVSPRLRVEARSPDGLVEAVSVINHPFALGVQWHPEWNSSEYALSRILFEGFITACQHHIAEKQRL
# Assay: log2 fold change of tryptic peptide abundance, ligand vs vehicle (limited proteolysis) (log2 ratio); higher = more trypsin-susceptible (destabilized)
# Conditions: peptide sequence: ILFEGFITACQHHIAEK; peptide start residue: 235; ligand concentration: 10 uM; sample: E. coli crude lysate
smiles,measurement,value
CC1(C)S[C@@H]2[C@H](NC(=O)[C@H](N)c3ccccc3)C(=O)N2[C@H]1C(=O)O [ampicillin],log2 fold change,1.27
